Measurements published in publication PMC11898277.
No constants are given. Whether binding was seen depends on the method and setting. In cells and extracts the contact can be indirect. Some entries that bind do so weakly or less than the wild type.

Protein sequences, listed by entry. Tags and fused reporters are not part of them. Residues count along the entry.
UniProt P29595, residues 1-76: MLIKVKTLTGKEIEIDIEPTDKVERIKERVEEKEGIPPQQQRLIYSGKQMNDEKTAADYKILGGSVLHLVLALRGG
UniProt Q80TT8: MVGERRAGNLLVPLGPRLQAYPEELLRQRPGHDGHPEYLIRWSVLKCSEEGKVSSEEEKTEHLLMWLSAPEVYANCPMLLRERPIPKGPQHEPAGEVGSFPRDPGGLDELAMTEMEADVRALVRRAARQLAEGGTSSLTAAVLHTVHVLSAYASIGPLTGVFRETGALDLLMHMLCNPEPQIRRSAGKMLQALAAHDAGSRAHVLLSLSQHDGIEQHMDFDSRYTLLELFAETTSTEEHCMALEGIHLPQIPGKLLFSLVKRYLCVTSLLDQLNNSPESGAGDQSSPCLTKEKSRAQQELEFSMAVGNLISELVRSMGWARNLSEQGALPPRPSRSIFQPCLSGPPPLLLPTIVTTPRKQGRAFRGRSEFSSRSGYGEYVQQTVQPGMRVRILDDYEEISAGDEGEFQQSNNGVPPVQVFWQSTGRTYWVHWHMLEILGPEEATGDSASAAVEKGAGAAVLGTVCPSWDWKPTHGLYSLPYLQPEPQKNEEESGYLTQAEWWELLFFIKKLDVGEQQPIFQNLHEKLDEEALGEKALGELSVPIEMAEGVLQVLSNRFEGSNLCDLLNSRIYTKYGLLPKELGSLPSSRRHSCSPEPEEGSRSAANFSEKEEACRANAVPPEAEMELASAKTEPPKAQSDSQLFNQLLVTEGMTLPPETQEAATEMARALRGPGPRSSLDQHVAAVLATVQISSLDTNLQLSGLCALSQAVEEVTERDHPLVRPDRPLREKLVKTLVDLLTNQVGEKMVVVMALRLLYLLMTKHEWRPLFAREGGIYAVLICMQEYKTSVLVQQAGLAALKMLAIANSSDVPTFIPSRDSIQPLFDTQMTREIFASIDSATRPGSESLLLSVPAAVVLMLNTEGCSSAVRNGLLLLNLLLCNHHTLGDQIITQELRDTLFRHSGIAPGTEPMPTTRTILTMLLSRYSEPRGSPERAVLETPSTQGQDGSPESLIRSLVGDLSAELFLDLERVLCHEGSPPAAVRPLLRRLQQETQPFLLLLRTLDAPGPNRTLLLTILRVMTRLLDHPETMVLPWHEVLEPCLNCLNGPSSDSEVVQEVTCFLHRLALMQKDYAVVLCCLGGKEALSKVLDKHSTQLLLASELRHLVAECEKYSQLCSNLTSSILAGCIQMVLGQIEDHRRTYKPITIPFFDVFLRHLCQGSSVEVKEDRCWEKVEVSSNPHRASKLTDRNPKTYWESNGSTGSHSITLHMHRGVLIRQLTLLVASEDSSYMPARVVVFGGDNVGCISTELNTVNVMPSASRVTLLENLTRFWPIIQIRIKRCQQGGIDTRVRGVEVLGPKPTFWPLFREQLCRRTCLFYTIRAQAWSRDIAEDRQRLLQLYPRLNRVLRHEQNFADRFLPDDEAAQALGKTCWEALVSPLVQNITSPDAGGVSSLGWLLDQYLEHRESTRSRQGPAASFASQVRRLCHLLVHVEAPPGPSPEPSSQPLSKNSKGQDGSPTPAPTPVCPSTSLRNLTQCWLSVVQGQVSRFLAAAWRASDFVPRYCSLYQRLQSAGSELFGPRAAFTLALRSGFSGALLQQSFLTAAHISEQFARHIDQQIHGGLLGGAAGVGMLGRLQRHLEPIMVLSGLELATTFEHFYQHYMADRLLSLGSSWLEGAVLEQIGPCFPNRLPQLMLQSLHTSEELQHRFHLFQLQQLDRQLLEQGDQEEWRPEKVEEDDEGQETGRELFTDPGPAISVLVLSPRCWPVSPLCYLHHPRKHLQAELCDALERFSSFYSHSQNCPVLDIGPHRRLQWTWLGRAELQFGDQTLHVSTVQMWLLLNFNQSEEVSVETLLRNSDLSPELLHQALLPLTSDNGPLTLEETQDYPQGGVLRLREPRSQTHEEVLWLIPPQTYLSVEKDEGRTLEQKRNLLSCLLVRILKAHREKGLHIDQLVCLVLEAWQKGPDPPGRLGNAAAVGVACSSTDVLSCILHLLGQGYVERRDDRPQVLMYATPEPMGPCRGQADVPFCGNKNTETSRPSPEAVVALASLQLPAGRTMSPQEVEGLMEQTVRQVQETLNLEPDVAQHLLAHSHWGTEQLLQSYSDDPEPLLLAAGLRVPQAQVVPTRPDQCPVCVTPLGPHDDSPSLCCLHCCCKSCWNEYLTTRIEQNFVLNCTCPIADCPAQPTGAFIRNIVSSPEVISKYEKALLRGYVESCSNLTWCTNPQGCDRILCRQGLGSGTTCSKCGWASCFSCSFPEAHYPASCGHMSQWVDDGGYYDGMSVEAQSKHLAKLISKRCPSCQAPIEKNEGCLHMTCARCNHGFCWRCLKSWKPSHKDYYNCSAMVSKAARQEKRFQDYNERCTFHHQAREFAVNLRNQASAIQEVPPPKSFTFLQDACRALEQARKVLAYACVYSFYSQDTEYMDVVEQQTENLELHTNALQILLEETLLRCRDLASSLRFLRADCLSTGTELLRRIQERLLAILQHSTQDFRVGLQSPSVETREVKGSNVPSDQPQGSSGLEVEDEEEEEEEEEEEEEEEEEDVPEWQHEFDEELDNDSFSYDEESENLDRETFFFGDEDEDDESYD

Biological target: Neural precursor cell-expressed developmentally down-regulated 8 (NEDD8) (mouse (endogenous in testis)) (UniProt P29595)
Test: co-IP; testis extracts of adult mice; precipitation with NEDD8 antibody or IgG, Protein A beads, immunoblot

Substance: CUL9 (from UniProt Q80TT8 1-2530)
- binding: binds
